Results on one molecule are retold here after patent US20100311660A1.

The target of this assay is T1, human NPR-C (human) (UniProt P17342).
T1 sequence (looked up): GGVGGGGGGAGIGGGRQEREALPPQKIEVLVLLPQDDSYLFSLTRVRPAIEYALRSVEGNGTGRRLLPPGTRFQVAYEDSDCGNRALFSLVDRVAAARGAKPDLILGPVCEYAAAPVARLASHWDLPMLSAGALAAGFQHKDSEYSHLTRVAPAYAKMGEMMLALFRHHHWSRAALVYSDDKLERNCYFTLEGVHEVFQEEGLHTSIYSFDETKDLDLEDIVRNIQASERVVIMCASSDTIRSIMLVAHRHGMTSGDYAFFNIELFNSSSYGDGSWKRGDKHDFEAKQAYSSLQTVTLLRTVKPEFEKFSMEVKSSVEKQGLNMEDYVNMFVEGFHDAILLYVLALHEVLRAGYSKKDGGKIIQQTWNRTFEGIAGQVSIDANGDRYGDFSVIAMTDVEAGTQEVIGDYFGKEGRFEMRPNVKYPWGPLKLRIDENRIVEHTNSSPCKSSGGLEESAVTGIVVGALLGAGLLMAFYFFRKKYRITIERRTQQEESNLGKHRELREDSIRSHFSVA
The assay can be described thus: receptor binding assay, methods similar to Fan et al. 2005.

No constants are given. Whether binding was seen depends on the method and setting. Some results given as binding are weak or reduced against the parent protein; the word gives no strength.

As for SPKMVQGSGCFGRKMDRISSSSGLGCKGKHPLPPRPPSPIPV [ASBNP.1 polypeptide], the binding entry is on record as “binds”.
